Reference: patent US20130224854A1 (NIPPON KAYAKU, published 2013)
Results are given in words; binding and its absence hold for the method and conditions named. Some results given as binding are weak or reduced against the parent protein; the word gives no strength.

Target: T1, peptide … (SEQ ID NO: 41) (human)
T1 sequence (peptide): GIGIPGLRG
Test: dot blot of synthetic peptides with NK46141 as a probe

- binding: binds
B1: monoclonal antibody NK46141 (antibody, V domains shown)
VH: EVQLVESGGGLVKPGGSLKLSCAASGFTFTDYYMYWVRQTPEKRLEWVATISEGGSYTYYPDSVKGRFTISRDNAKNNLYLQMSSLKSEDTAMYYCASPYYGDGGFAYWGQGTLVTVSA
VL: DVLMTQTPLSLPVSLGDQASISCRSSQSIVHSDGNTYLEWYLQKPGQSPRLLIYKVSNRFSGVPDRFSGSGSGTDFTLKISRVEAEDLGVYYCFQGSHVPPTFGGGTKLEIKR
notes: also called anti-single-chain type IV collagen polypeptide antibody; Anti NK-Antigen monoclonal antibody #141
